We go through 118 compounds from PubChem BioAssay AID2003 (Broad Institute, 2009).

Each structure is given as a SMILES string. This is one part of the list. Entries with a potency or affinity are not part of this list. The source made no clear call on entries shown without one.

A short description of this assay: PubChem AID 2003. To be noted: H4 cells, SNCA 5'UTR luciferase reporter, luminescence; at 12 µM (top of the series) unless noted. On the technique in general: Reporter assays use an easily measured gene product as a stand-in for the process of interest.
`O=C(NCCCN1CCCC1=O)C(=O)Nc1cccc(F)c1`: the activation turned out to be 58.2%.

For the compound `COc1ccc(-c2cc(C(=O)Nc3cccc(Cl)c3)no2)cc1`, the activation is 54.9%.

Take `Cc1c(C)c2ccc(OCC(=O)Nc3cccnc3)c(C)c2oc1=O`: the activation stood at 53%.

In the case of `COc1ccc2cc(-c3csc(-c4cccnc4)n3)ccc2c1`, the activation was 63.4%.

`Oc1c(C2=NCCNC(C(F)(F)F)=C2)ccc2ccccc12`: the activation was 89.6%.

Consider `Cc1cc(/C=C(\C#N)C(=O)NCc2cccs2)c(C)n1-c1ccccc1F`, for which the activation was found to be 58.6%.

Take `COc1ccccc1-c1nc(-c2ccc(Br)cc2)no1`: the activation turned out to be 72.8%.

As for `COc1ccc(C2Nc3ccccc3C(=O)N2c2ccc(C)cc2)cc1Cn1nnc2ccccc21` (stereo not drawn), the activation turned out to be 56.9%.

With `O=C(Nc1cccc(Cl)c1)c1ccc2c(=O)n3c(nc2c1)CCCCC3`, the activation came to 115%.

As to `CC(C)c1ccc(/C=N/NC(=O)c2cccc(Cl)c2)cc1`, the activation came to 42%.

For the compound `CC(Oc1ccccc1)C(=O)NC1=NCCS1` (stereo not drawn), the activation is 80%.

For the compound `CCc1nnc(NC(=O)CSc2nc3c(cc2C#N)CCC3)s1`, the activation was -10.9%.

With `CC(C)c1ccc(NC(=O)NC2CCCCC2)cc1`, the activation turned out to be 51.3%.

For `Cc1ccc(N(CC(=O)Nc2ccc(-c3nc4ccc(C)cc4s3)cc2)S(C)(=O)=O)cc1`, the activation was 81.5%.

Regarding `Cc1nc2cc(NC(=O)CCS(=O)(=O)c3ccccc3)ccc2s1`, the activation stood at 49.7%.

For the compound `O=c1sc(N2CCN(c3ccccc3F)CC2)nc2ccsc12`, the activation amounted to 143%.

As to `O=C(NC1CC1)c1cccc(Nc2ccc(-c3ccc4c(c3)OCCO4)nn2)c1`, the activation came to 53%.

Take `Cc1nc2c(-c3ccccc3)cnn2c(N2CCOCC2)c1C`: the activation was determined as 74.5%.

Consider `O=C(COc1cccc2cccnc12)Nc1ccccc1`, for which the activation was 46.9%.

For the compound `CCCc1ccc2oc(C(=O)N3CCC[C@H]3CO)c(C)c2c1`, the activation worked out at 72.2%.

In the case of `O=C(N/N=C/c1ccc2nccnc2c1)c1ccccc1O`, the activation is 42.7%.

On to `CCCCOc1ncnc2c1[nH]c1ccc(OC)cc12`, for which the activation was 12.7%.

As for `CCOC(=O)CSc1nc(-c2ccc3c(c2)OCO3)ccc1C#N`, the activation was 45.9%.

Consider `Cc1ccc(OCc2nc(-c3ccccc3)no2)c(C)c1`, for which the activation is 90.5%.

Turning to `Cc1ccccc1/C=C/c1nc2ccccc2c(=O)[nH]1`, the activation worked out at 28.4%.

For `Nc1c(-c2cccs2)cnn1-c1nc(-c2ccc(F)cc2)cs1`, the activation came to 134% [at 6 µM].

Regarding `O=C(CSc1cn(Cc2ccccc2)c2ccccc12)Nc1nccs1`, the activation is 64.2%.

`Cc1cccc(COc2ccc(/C=N/NC(=O)c3nnn(-c4nonc4N)c3COc3ccc(F)cc3)cc2)c1`: the activation stood at 29.7%.

For the compound `c1ccc2c(c1)oc1c(Nc3ccc(CN4CCOCC4)cc3)ncnc12`, the activation turned out to be 34.4%.

With `CCSc1nnc2c(n1)[nH]c1c(C)cccc12`, the activation is 93.8%.

On to `COc1ccc(-c2cc(C(=O)N3CCN(c4ccccn4)CC3)c3ccccc3n2)cc1`, for which the activation worked out at 32.1%.

On to `N/C(=N\OC(=O)c1ccco1)c1ccccc1`, for which the activation is 54.3%.

For `O=C(N/N=C\c1cccc(Cl)c1)c1n[nH]c2c1CCCC2`, the activation was 82.2%.

Take `CCOc1ccc(NC(c2ccccn2)c2oc(CO)cc(=O)c2O)cc1` (stereo not drawn): the activation worked out at 61.1%.

For the compound `Cc1ccc(-c2c(C)sc(=NC(=O)c3ccco3)n2C)cc1`, the activation was 27%.

As for `CC(C)(C)c1cc(NC(=O)Nc2ccccc2)no1`, the activation came out at 80.4%.

With `Cc1ccc(Sc2cnc3ccccc3n2)cc1`, the activation came out at 69.8%.

Take `COc1ccc(Cn2c(-c3ccc(Cl)cc3)c[n+]3ccccc23)cc1`: the activation amounted to 87.2%.

Turning to `O=C(NC1CCCC1)c1cc2c(ccc3ccccc32)o1`, the activation came out at 124%.

In the case of `O=C(O)c1ccc(N/N=C/c2ccc(-c3cc(Cl)ccc3Cl)o2)cc1`, the activation came out at 69.2%.

Consider `CCCC(=O)Nc1sc2c(c1C#N)CCCCC2`, for which the activation was 52.9%.

For `COc1ccc(-c2nnn(Cc3ccccc3F)n2)cc1`, the activation is 87.3%.

`Cc1ccccc1-n1c(C)nnc1SCc1nc2ccccc2s1`: the activation amounted to 84.4%.

For the compound `Cc1ccsc1C1NC(=O)c2c(sc3c2CCCC3)N1` (stereo not drawn), the activation came to 68.7%.

Consider `O=C(Nc1ccc(-c2cn3ccccc3n2)cc1)c1ccco1`, for which the activation was 180% [at 6 µM].

Turning to `C=C1CCC2[C@](C)(CO)[C@H](O)CC[C@@]2(C)[C@@H]1C/C=C1\C(=O)OC[C@H]1O` (stereo partly drawn), the activation came out at 4.9%.

As to `O=C1N=C(N2CCOCC2)S/C1=C1\C(=O)N(Cc2ccccc2)c2ccccc21`, the activation was determined as 88.2%.

Take `O=C(COc1ccccc1Cl)c1ccc2c(c1)CCCC2`: the activation turned out to be 76.1%.

For `CNc1nc(-c2ccc3c(c2)CCN3C(=O)c2cccc(F)c2)cs1`, the activation is 100% [at 6 µM].

On to `Oc1[nH]c2ccccc2c1C=Nc1ccc2c(c1)OCO2`, for which the activation was 107%.

For the compound `Cc1cccc(-c2cc3nc4c(c(N5CCOCC5)n3n2)CCCC4)c1`, the activation was determined as 52.6%.

As to `CN(C)c1ccc(/C=N/n2ncc3ccccc32)cc1`, the activation is -49.7%.

As to `COc1ccc(C(=O)N=c2sc3c(C)ccc(OC)c3n2C)cc1OC`, the activation is 133%.

In the case of `O=C(Nc1ccc(-c2cn3ccsc3n2)cc1)C1CC1`, the activation worked out at 83.1%.

For the compound `O=C(NCCSc1ccccc1)c1ccco1`, the activation worked out at 68.2%.

As to `N#C/C(=C\c1ccc(Sc2ccccc2)o1)c1nc2ccccc2[nH]1`, the activation is 90.5%.

Consider `CCOC(=O)c1cnc(SCc2ccccc2)nc1N`, for which the activation was 7%.

For `Cc1nc(NC(=O)C2CC2)sc1C(=O)Nc1ccccc1Cl`, the activation came to 63.8%.

As for `Nc1c(C(=O)c2ccccc2)oc2ccc(Br)cc12`, the activation worked out at 63.3%.

Turning to `Cc1cccc(-c2nsc(SCC(=O)N3CCCC3)n2)c1`, the activation is 38.5%.

Consider `O=C(c1ccccc1)c1cc2cc(Cl)ccc2[nH]1`, for which the activation was determined as 98.4%.

Consider `CCN(CC)c1ccc(/C=N/N2CCOCC2)c(O)c1`, for which the activation is 61.8%.

On to `CCn1c(C)cc(/C=C2/NC(=O)N(c3ccccc3)C2=O)c1C`, for which the activation was determined as 67.8%.

In the case of `CN1CCN(c2ccc(-c3ccnn3C(=O)Nc3cccc(C(F)(F)F)c3)cc2)CC1`, the activation was 34.7%.

Consider `O=C(/C=C/c1ccc2c(c1)OCO2)Nc1nncs1`, for which the activation was found to be 36.6%.

As to `Fc1cccc(CSc2ccc(-c3ccco3)nn2)c1`, the activation worked out at 56.4%.

Regarding `Cc1nc(NC(=O)c2cccs2)ccc1Br`, the activation was found to be 144%.

For the compound `Nc1nnc(CC(=O)N/N=C/c2cccc(OCCOc3ccccc3)c2)s1`, the activation turned out to be 26.9%.

In the case of `O=C(N=c1nc2ccccn2s1)c1ccccc1`, the activation turned out to be 79.3%.

On to `CC(/C=N/Nc1ccc2nncn2n1)=C\c1ccccc1`, for which the activation amounted to 50.4%.

With `COc1cccc(C=O)c1OCCCOc1cccc2cccnc12`, the activation is 69.2%.

As to `CSc1ccc(CNC(=O)Cc2ccc(NC(=O)C3=C(C)OCCS3)cc2)cc1`, the activation is 20.6%.

`Cc1cc(NC(=O)c2noc3c2CCCCC3)no1`: the activation amounted to 66%.

Regarding `CCc1ccc(OCc2ccc(C(=O)OC)o2)cc1`, the activation turned out to be 49.8% [at 6 µM].

For `CCN(CC)c1ccc(C2Nc3cccc4cccc(c34)N2)cc1`, the activation turned out to be 246%.

As to `Cc1cc(C(=O)CSc2nnnn2C)c(C)n1Cc1ccco1`, the activation came out at 27.3%.

On to `[O-][n+]1onc2c1CCc1c-2nn(-c2ccccc2Cl)[n+]1[O-]`, for which the activation is 69%.

For `Clc1ccc(-c2nsc(N3CCOCC3)n2)c(Cl)c1`, the activation is -22.7%.

`CCOC(=O)C1CCN(c2ccc(-c3cccs3)nn2)CC1`: the activation came out at 60.6%.

For the compound `CC(C)(C)c1ccc(OCc2nc(-c3ccccn3)no2)c(Br)c1`, the activation came out at 158% [at 6 µM].

With `CC(=O)c1ccc(NC(=S)NCCc2cccc(Cl)c2)cc1`, the activation stood at 144%.

On to `Cn1cccc1/C=C1\CCC/C(=C\c2cccn2C)C1=O`, for which the activation came out at 47.4%.

Turning to `COc1c(C)cccc1C(=O)Nc1ccc(N2CCOCC2)c(Cl)c1`, the activation was determined as 79%.

With `Cc1cc2oc3cc(NCCC4CCCN4C)ccc3c(=O)c2cc1C` (stereo not drawn), the activation came to 94%.

Consider `N/C(=N\N=C\c1ccc(O)cc1)c1nonc1N`, for which the activation was found to be 89.6%.

For `O=C(/C=C/c1ccccc1Cl)NCCc1ccccc1`, the activation was 28.8%.

As for `Cc1ccc(N=Nc2c(C)[nH]n(C(N)=S)c2=O)cc1C`, the activation is 196%.

Regarding `Clc1ccc(/C=N/Nc2ncnc3ccccc23)cc1Cl`, the activation stood at 96.4%.

As to `O=C(NC1=NCCS1)c1ccc(Cl)cc1`, the activation is 64.1%.

As to `Nc1ccc(Oc2cc(N)cc(Oc3ccccc3)c2)cc1`, the activation was determined as 72.1%.

For the compound `CS(=O)(=O)c1nc(S(=O)(=O)c2ccc(Cl)cc2)c(N2CCC3(CC2)OCCO3)s1`, the activation was 39.1%.

Consider `CN(C)/N=C/C=C1\CCC/C(=C/c2cccs2)C1=O`, for which the activation turned out to be 60.9%.

`Cc1cc(N)n2ncc(-c3ccccc3)c2n1`: the activation was found to be 87%.

As for `COCCn1c(C)cc(C(=O)COC(=O)c2ccc3ncsc3c2)c1C`, the activation worked out at 65%.

In the case of `O=C(CSc1nnc(-c2ccc(Cl)cc2)o1)N1CCOCC1`, the activation is 73%.

In the case of `O=c1c2c(nc3cc(-c4ccccc4Cl)[nH]n13)CCS2`, the activation was 44.9%.

For the compound `CCN1CCN(Cc2ccccc2NC(=O)Nc2ccc(C)cc2)CC1`, the activation is 28.1%.

Take `Cc1ccc(-c2onc3ccc(C4OCCO4)cc23)cc1`: the activation turned out to be 50.5%.

For `CC1(C)CC(=O)/C(=N/Nc2ccc(Cl)cc2)CO1`, the activation is 107%.

Regarding `c1ccc(CN=C2NN=C(c3ccccc3)CS2)cc1`, the activation is 51.3%.

Consider `COc1cccc(NC(=O)NCCC2=CCCCC2)c1`, for which the activation was 85.7%.

As for `Oc1ccc(-c2csc(-c3ccccc3)n2)cc1O`, the activation worked out at 45.7%.

As to `O=S(=O)(c1ccc(Cl)s1)N1CCCc2cccc(O)c21`, the activation was determined as 45.7%.

With `O=C(Nc1ccc2sc3ccccc3c(=O)c2c1)c1ccccc1Cl`, the activation came to 50.7%.

For `O=C(c1ccccc1-c1nc(-c2ccc(Cl)cc2)no1)N1CCCC1`, the activation was found to be 69%.

Consider `CC1CCN(C(=S)NCCc2ccccc2)CC1`, for which the activation is 26.2%.

For `Cc1cc(C(=O)CSc2nc3ccccc3o2)c(C)n1CC1CCCO1` (stereo not drawn), the activation was -8.2%.

As to `ON=C1c2cc(OCCN3CCCCC3)ccc2-c2ccc(OCCN3CCCCC3)cc21`, the activation is -98.3%.

For the compound `Cc1ccc(C(=O)Nc2nc3ccccc3n2CCN2CCCC2)cc1`, the activation was determined as 37.5%.

For `CC1Oc2cc3oc4c(O)c5c(cc4c(=O)c3c(O)c2C1(C)C)C=CC(C)(C)O5` (stereo not drawn), the activation was found to be 146%.

Take `N#Cc1c(NC(=O)C2CCCO2)sc2c1CCCCC2` (stereo not drawn): the activation came to 45.5%.

`Nc1c(C(=O)Nc2ccc3c(c2)OCCO3)nnn1Cc1ccc(Br)cc1`: the activation amounted to 46.7%.

Take `O=C(COC(=O)CC1CCCC1)Nc1cc2c(cc1Cl)C(=O)c1ccccc1C2=O`: the activation came out at 24.3%.

Take `O=C(NCc1ccccc1)c1cccc(COc2ccc(Cl)cc2)c1`: the activation stood at 26.7%.

For `COc1ccc(Oc2nccc(-c3ccccc3)c2C#N)cc1`, the activation is 53.4%.

Turning to `Cc1cc(C(=O)CSc2n[nH]c(N)n2)c(C)n1-c1ccccc1`, the activation stood at 87.3% [at 6 µM].

`Cc1ccc(-n2c(C)c(C)c3c(NCCCO)ncnc32)cc1`: the activation came to 53%.

Regarding `Cc1oc(=O)c(NC(=O)c2cccc(Cl)c2)cc1C(=O)c1ccccc1`, the activation was 1.7%.
